Test results from patent publication US20260345601A1, “FORMS OF CARBAMATE DERIVATIVES AND RELATED USES” (NodThera Limited, priority 2022, published 2026).
For some assays here: At least one read-out could not be matched to a standard name with certainty. For some assays here: For at least one compound, name, drawing or mass did not settle the structure.

Key:
[1] = Storage at 25 °C/97% RH and 40 °C/75% RH; assay type: physicochemical; conditions: HPLC Method No. 1
Experimental: Chemical Purity Determination by High-Performance Liquid Chromatography (HPLC)
Purity analysis was performed on an Agilent HP1100/Infinity II 1260 series system equipped with a diode array detector and using OpenLAB software. The full method details are provided below:
Unless stated within the appropriate data tables, all HPLC purity data reported has been run using the HPLC Method No. 2.

NLRP3 inflammasome = conditions: reported in literature; cited from earlier work

Row | Compound | Storage: HPLC purity ([1]; 25 °C/97% RH) [%] | Storage: HPLC purity ([1]; 40 °C/75% RH) [%] | Effect on NLRP3 activation (NLRP3 inflammasome)
1 | CC(C)OC(=O)[C@@H](Cc1ncccn1)OC(=O)Nc1c2c(cc3c1CCC3)CCC2 [Form 1, propan-2-yl(2R)-2-{[(1,2,3,5,6,7-hexahydro-s-indacen-4-yl)carbamoyl]oxy}-3-(pyrimidin-2-yl) propanoate] | 99.4 | 98.8 | 
2 | CC(C)OC(=O)[C@@H](Cc1ncccn1)OC(=O)Nc1c2c(cc3c1CCC3)CCC2 [Form 2, propan-2-yl(2R)-2-{[(1,2,3,5,6,7-hexahydro-s-indacen-4-yl)carbamoyl]oxy}-3-(pyrimidin-2-yl) propanoate] | 96.2 | 97.9 | 
3 | CC(O)CC(=O)O (stereo not drawn) [β-hydroxybutyrate] |  |  | suppress NLRP3 activation
